Source: PubChem BioAssay AID1259424 (University of Nebraska Medical Center, 2018)
Here is an unselected part of about 14,000 reagents. 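Higher correlation or smaller distance means closer resemblance to KSR1 loss; control wells, including KSR1 knockdowns, recur on many plates.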 Not all columns of the deposit are shown. Reagent sequences are not shown. Not given: the time to read-out.

Screen: 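Rank knockdowns across the genome by resemblance to the KSR1 depletion profile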 (primary screen)
System: human HCT116 colon cancer cells
Knock-down reagent: siRNA pool against human genes, 50 nM
Measured: 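Six signature mRNAs by branched-DNA multiplex assay, scaled to two housekeeping genes and non-targeting median, log2; matched to mean KSR1 knockdown profile by Pearson correlation and euclidean distance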
Reading the numbers: mean correlation with KSR1 profile: higher = expression change more like KSR1 knockdown

Silencing of ELOA2 [SID364000099] came out at: mean correlation with KSR1 profile -0.825. Against ATOH8 [SID364004205], the entry reads mean correlation with KSR1 profile 0.209. Silencing of ITGB1BP1 [SID363995720] gave: mean correlation with KSR1 profile 0.341. Depletion of ADAMTS5 [SID363997769] came out at: mean correlation with KSR1 profile 0.0983. Against PLEKHH1 [SID364005523], the values are mean correlation with KSR1 profile -0.753. Against LDHB [SID363993498] the deposit lists mean correlation with KSR1 profile -0.0907.

Silencing of TGM2 [SID363995581] gave: mean correlation with KSR1 profile 0.771. Silencing of XCR1 [SID363996202] resulted in: mean correlation with KSR1 profile 0.399. Against CXCR5 [SID363992937], the values are mean correlation with KSR1 profile 0.667. After knock-down of UBE2S [SID363998909], the screen gave mean correlation with KSR1 profile -0.0283. TELO2 [SID363999880] scored mean correlation with KSR1 profile -0.152. Knock-down of TATDN1 [SID364003746] resulted in: mean correlation with KSR1 profile 0.827.

Looked up above.
Value of ATOH8 [SID364004205] under “mean correlation with KSR1 profile”: 0.209
For “mean correlation with KSR1 profile”, PLEKHH1 [SID364005523] reads -0.753
